The values that follow come from PMC10318043.

Sequences of proteins named here, by UniProt entry; tags and fusion partners are left off.
UniProt P49841: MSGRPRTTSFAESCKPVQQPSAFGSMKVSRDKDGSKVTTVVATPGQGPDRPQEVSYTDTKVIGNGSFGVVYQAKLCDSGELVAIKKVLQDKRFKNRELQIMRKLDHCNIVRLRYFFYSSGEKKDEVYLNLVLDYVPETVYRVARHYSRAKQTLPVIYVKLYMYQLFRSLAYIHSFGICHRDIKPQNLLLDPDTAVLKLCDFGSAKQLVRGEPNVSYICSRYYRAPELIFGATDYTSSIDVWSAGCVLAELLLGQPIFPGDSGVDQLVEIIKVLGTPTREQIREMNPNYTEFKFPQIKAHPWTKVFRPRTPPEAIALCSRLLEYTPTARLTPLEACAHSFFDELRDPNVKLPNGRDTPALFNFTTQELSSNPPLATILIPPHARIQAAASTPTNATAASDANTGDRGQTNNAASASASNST
UniProt P45983: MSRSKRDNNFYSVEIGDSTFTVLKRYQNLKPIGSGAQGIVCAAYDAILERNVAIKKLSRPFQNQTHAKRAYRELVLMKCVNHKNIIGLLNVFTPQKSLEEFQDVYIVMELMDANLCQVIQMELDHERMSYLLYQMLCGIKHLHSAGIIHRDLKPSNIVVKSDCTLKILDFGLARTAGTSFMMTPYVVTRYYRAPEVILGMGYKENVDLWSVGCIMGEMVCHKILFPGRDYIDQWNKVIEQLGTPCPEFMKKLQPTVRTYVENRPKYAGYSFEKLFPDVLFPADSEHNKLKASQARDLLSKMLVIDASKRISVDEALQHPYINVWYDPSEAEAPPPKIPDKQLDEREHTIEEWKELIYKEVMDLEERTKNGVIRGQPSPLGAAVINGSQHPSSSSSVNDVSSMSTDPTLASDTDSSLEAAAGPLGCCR
UniProt Q16584: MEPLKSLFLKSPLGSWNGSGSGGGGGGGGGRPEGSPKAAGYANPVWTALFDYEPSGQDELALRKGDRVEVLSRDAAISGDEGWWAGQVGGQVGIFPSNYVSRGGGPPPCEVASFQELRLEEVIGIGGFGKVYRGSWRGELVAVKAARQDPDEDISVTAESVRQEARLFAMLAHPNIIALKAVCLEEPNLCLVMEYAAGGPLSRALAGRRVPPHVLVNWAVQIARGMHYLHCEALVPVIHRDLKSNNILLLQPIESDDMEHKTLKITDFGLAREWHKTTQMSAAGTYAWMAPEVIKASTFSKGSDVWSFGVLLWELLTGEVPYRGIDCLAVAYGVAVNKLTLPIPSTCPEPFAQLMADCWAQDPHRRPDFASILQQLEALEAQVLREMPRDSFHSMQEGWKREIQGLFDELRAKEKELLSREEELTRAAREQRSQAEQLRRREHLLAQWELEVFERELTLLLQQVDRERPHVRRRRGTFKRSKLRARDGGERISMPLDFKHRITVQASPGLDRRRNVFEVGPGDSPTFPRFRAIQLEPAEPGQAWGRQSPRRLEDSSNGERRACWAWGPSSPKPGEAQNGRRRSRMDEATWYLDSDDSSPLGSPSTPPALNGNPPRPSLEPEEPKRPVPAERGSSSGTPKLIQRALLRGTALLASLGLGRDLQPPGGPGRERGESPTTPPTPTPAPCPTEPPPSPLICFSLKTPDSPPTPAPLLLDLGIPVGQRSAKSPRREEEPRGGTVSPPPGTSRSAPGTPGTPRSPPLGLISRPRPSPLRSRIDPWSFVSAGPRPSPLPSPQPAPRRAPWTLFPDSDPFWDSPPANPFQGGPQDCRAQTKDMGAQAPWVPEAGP

No constants are given. Whether binding was seen depends on the method and setting. In cells and extracts the contact can be indirect. Some binding calls cover weakened binding; strength is not graded here. For part of these data: Where a sequence is shown, tags or fusion partners need not be part of it.

In assay [1] the target is Flag-GSK3β (human) (human) (UniProt P49841). The experiment in a line: co-IP; HEK293 cells cotransfected with HA-hPellino3 and Flag-tagged kinase plasmids; lysates immunoprecipitated with anti-Flag, immunoblotted with anti-HA and anti-Flag. (In general: In western blotting, separated proteins are transferred to a membrane and probed.)
Another assay concerns the target Flag-JNK1 (UniProt P45983). The description is as above.
Another assay deals with Flag-JNK2 (UniProt P45984). The description is as above.
Assay [2] addresses Flag-MLK3 (UniProt Q16584). The assay is described as above.
Assay [3] has as its target Flag-GSK3β (human) (human) (UniProt P49841). The experiment in a line: co-IP; Supplementary Fig. 3a, b; tags and direction of the precipitation not shown.
For assay [4], the target named is Flag-MLK3 (UniProt Q16584). Described as above.

B1: HA-tagged human Pellino3a (protein, UniProt Q8N2H9 1-469)
chain: MVLEGNPEVGSPRTSDLQHRGNKGSCVLSSPGEDAQPGEEPIKYGELIVLGCCEEGGEETEAQRGEVTGPRAHSCYNGCLASGDKGRRRSRLALSRRSHANGVKPDVMHHISTPLVSKALSNRGQHSISYTLSRSHSVIVEYTHDSDTDMFQIGRSTENMIDFVVTDTSPGGGAAEGPSAQSTISRYACRILCDRRPPYTARIYAAGFDASSNIFLGERAAKWRTPDGLMDGLTTNGVLVMHPAGGFSEDSAPGVWREISVCGNVYTLRDSRSAQQRGKLVENESNVLQDGSLIDLCGATLLWRTPAGLLRAPTLKQLEAQRQEANAARPQCPVGLSTLAFPSPARGRTAPDKQQPWVYVRCGHVHGYHGWGCRRERGPQERECPLCRLVGPYVPLWLGQEAGLCLDPGPPSHAFAPCGHVCSEKTARYWAQTPLPHGTHAFHAACPFCGAWLTGEHGCVRLIFQGPLD
Turning to B1, the binding entry is “binds” in assay [1], “binds weakly” with Flag-JNK1, “binds weakly” in the assay with Flag-JNK2 and “binds” in the assay with Flag-MLK3 [2].

B2: human Pellino3b (protein, UniProt Q8N2H9-2 1-445)
chain: MVLEGNPEVGSPRTSDLQHRGNKGSCVLSSPGEDAQPGEEPIKYGELIVLGYNGCLASGDKGRRRSRLALSRRSHANGVKPDVMHHISTPLVSKALSNRGQHSISYTLSRSHSVIVEYTHDSDTDMFQIGRSTENMIDFVVTDTSPGGGAAEGPSAQSTISRYACRILCDRRPPYTARIYAAGFDASSNIFLGERAAKWRTPDGLMDGLTTNGVLVMHPAGGFSEDSAPGVWREISVCGNVYTLRDSRSAQQRGKLVENESNVLQDGSLIDLCGATLLWRTPAGLLRAPTLKQLEAQRQEANAARPQCPVGLSTLAFPSPARGRTAPDKQQPWVYVRCGHVHGYHGWGCRRERGPQERECPLCRLVGPYVPLWLGQEAGLCLDPGPPSHAFAPCGHVCSEKTARYWAQTPLPHGTHAFHAACPFCGAWLTGEHGCVRLIFQGPLD
Take B2: the binding entry (in assay [3]; with Flag-MLK3 [4]) was “binds” in each case.
